PubChem BioAssay AID504594 (Broad Institute, 2011)
Several values for one entry are separate records, joined by “and”; a condition that tells them apart may be missing. Equal entries are not always repeated. Screen size: about 2,000 compounds; fewer than 10 were called active.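 Rule for the calls: active = growth inhibition of at least 75% in every replicate, which also brings the mean inhibition to 75% or more; inconclusive = mean inhibition 75% or more but some replicate under 75%; inactive = the rest.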 This is one part of the list.

Assay: reduced viability of yeast carrying PfHsp90 – S. cerevisiae, BacTiter-Glo luminescence, antimalarial PfHsp90 inhibitor project, primary screen (AID 504594);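 note: 0% = DMSO neutral control wells and 100% = 20 µM radicicol control wells; higher value means stronger growth inhibition because the sign is flipped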
Conditions: S. cerevisiae expressing PfHsp90, BacTiter-Glo growth, 48 h; at 9.4 µM; active compounds read high

| SMILES | growth inhibition |
| --- | --- |
| Cc1cccc(-c2ncc(CN3CCN(CC(C)C)C(CCO)C3)cn2)c1 (centres undefined) | inactive: 1.96% |
| COc1ccc(Cc2noc(CN(C)CC3(N4CCOCC4)CCCCC3)n2)cc1OC | inactive: 8.87% |
| COC1CCN(Cc2cn(Cc3ccccc3)nc2-c2cc3ccccc3o2)CC1 | inactive: 3.22% |
| COc1ccc(C2C3=C(OC(C)=O)c4ccccc4C3=Nc3c2c(=O)n(C)c(=O)n3C)cc1 (centres undefined) | inactive: -5.34% |
| O=C1NC(=O)C(c2ccccc2)(c2ccccc2)N1 | inactive: 0.478% and inactive: 3.13% |
| Cc1ccccc1-c1nn(-c2ccc(F)cc2F)cc1CNCCN(C)C | inactive: -12.6% |
| Cc1ccc2c(c1)C(O)(C1COC(C)(C)CC1=O)C(=O)N2C (centres undefined) | inactive: 0.262% |
| O=C1NCC2=C1C(c1ccccc1)Nc1ccccc1N2 (centres undefined) | inactive: 6.48% |
| c1ccc(CNc2ncnc3nc[nH]c23)cc1 | inactive: -9.92% |
| CC(C)Cc1nc(NCCN2CCOCC2)c(C#N)c2c1COC(C)(C)C2 | inactive: 4.14% |
| O=c1nc2cccc3c2=c(/c1=C(\O)c1ccccc1)c1ccccc1c3=O | inactive: -23.6% |
| Fc1ccc(-c2cc(-c3ccccc3)nc(-n3cccn3)n2)cc1 | inactive: 41% |
| CC(=O)OCC[N+](C)(C)C | inactive: 5.1% and inactive: -0.781% |
| Cn1c(=O)c(C(=O)NCCO)c(O)c2ccccc21 | inactive: 6.66% |
| CC[n+]1ccc2cc(OC)c(OC)cc2c1Cc1ccc(OC)c(OC)c1 | inactive: -1.65% |
| O=C(/C=C/c1ccc2c(c1)OCO2)c1ccccn1 | inactive: 13.3% |
| CN1C(=O)C(O)(CC(=O)/C=C/C=C/c2ccccc2)c2ccccc21 (centres undefined) | inactive: 3.4% |
| Cn1cc(C2N3CC4(C)CN2CC(C)(C3)C4=O)c2ccccc21 (centres undefined) | inactive: -6.17% |
| OCCN(CCO)c1ccc2ccccc2c1 | inactive: -5.34% |
| CN(C)[C@@H]1C(=O)C(C(N)=O)=C(O)[C@@]2(O)C(=O)C3=C(O)c4c(O)ccc(Cl)c4[C@@H](O)[C@H]3C[C@@H]12 | inactive: -2.79% |
| CC(C)(C)C(=O)NC(=S)NNC(=O)c1ccncc1 | inactive: 1.34% |
| C[C@H]1O[C@H]1P(=O)(O)O | inactive: -1.34% |
| COc1ccc2[nH]cc(CCNC(=O)C3CCCNC3=O)c2c1 (centres undefined) | inactive: -3.06% |
| CCOC(=O)c1ccc(N2C(=O)C(CC(N)=O)N(CCc3ccc(OC)c(OC)c3)C2=S)cc1 (centres undefined) | inactive: 6.32% |
| CC1COc2c(N3CCN(C)CC3)c(F)cc3c(=O)c(C(=O)O)cn1c23 (centres undefined) | inactive: 0.903% |

Two compounds picked at random from those above, as already listed:

| SMILES | growth inhibition |
| --- | --- |
| CC1COc2c(N3CCN(C)CC3)c(F)cc3c(=O)c(C(=O)O)cn1c23 (centres undefined) | inactive: 0.903% |
| Cn1cc(C2N3CC4(C)CN2CC(C)(C3)C4=O)c2ccccc21 (centres undefined) | inactive: -6.17% |

Remaining list, next part

| SMILES | growth inhibition |
| --- | --- |
| CCN(CC)C(=O)c1sc(NC(=O)c2c(OC)cccc2OC)c(C#N)c1C | inactive: 4.33% |
| O=C(O)/C=C/c1cnc[nH]1 | inactive: -3% |
| NCc1ccccc1COc1ccccc1 | inactive: -10.1% |
| COCCCNc1nc2c([nH]1)c(=O)[nH]c(=O)n2C | inactive: -6.16% |
| CC12CN3CC(C)(CN(C1)C3c1ccc(Cl)cc1Cl)C2=O (centres undefined) | inactive: -10.6% |
| Cc1cc(O)c(C(=O)Cc2csc(C)n2)c(O)c1 | inactive: -6.85% |
| O=c1[nH]cnc2[nH]ncc12 | inactive: 4.2% |
| CN(C)C(=O)Oc1cccc([N+](C)(C)C)c1 | inactive: -4.89% and inactive: 1.83% |
| CN1CCC(OC(c2ccccc2)c2ccccc2)CC1 | inactive: -13.4% |
| NC(CO)C(=O)NNCc1ccc(O)c(O)c1O (centres undefined) | inactive: 23% |
| COc1ccc2cc(C(=O)OC(C)C)sc(=O)c2c1OC | inactive: -7.81% |
| CN(C)CCCN1c2ccccc2CCc2ccccc21 | inactive: 0.476% |
| COc1cccc(OCC(O)CO)c1 (centres undefined) | inactive: -3.88% |
| CCOC(=O)N1c2ccccc2C=CC1OCC (centres undefined) | inactive: -5.21% |
| CC(C)CN1CCN(Cc2cccn2-c2ccccn2)CC1CCO (centres undefined) | inactive: 7.76% |
| CCC(=O)c1ccc(OCc2ccc(C(=O)OC)cc2)cc1 | inactive: -0.292% |
| COc1cc(/C=C/C(=O)CC(=O)/C=C/c2ccc(O)c(OC)c2)ccc1O | inactive: 0.395% |
| CC1(C)C(C=C(Cl)Cl)C1C(=O)N1CCN(Cc2ccccc2)CC1 (centres undefined) | inactive: 3.99% |
| CNC(=O)Oc1ccc2c(c1)[C@]1(C)CCN(C)[C@@H]1N2C | inactive: -18.9% |
| CC1(C)S[C@@H]2[C@H](NC(=O)Cc3ccccc3)C(=O)N2[C@H]1C(=O)O | inactive: 13.9% |
| Cc1cc(=O)c2c(O)c(O)ccc2o1 | inactive: -4.06% |
| CCCCCCCC(=O)OCC(=O)[C@@]1(O)CC[C@H]2[C@@H]3CCC4=CC(=O)CC[C@]4(C)[C@H]3[C@@H](O)C[C@@]21C | inactive: 12.2% |
| COc1cc(OC)c(-c2nc3cnccc3n2C)cc1OC | inactive: -1.54% |
| O=C1CC(c2ccc(F)cc2)Cc2nc(NCC3CCCO3)ncc21 (centres undefined) | inactive: 6.43% |
| CNCCCN1c2ccccc2CCc2ccccc21 | inactive: 5.11% |

| SMILES | growth inhibition |
| --- | --- |
| C[n+]1ccccc1/C=N/O | inactive: 18.1% and inactive: 2.57% |
| COc1ccc(CN2CCCCC2C(=O)Nc2ccc(OC)c(OCC(C)C)c2)cc1OC (centres undefined) | inactive: 0.843% |
| Cc1cccc(Nc2ccccc2C(=O)O)c1C | inactive: -9.21% |
| CCC(C)n1ncn(-c2ccc(N3CCN(c4ccc(OCC5COC(Cn6cncn6)(c6ccc(Cl)cc6Cl)O5)cc4)CC3)cc2)c1=O (centres undefined) | inactive: -1.74% |
| CCOc1ncnc2c1[nH]c1ccccc12 | inactive: -0.202% |
| COc1ccc(C2C3=C(CC(C)(C)CC3=O)N(C)C3=C2C(=O)CC(C)(C)C3)cc1 | inactive: 5.42% |
| C#CCN(C)CCCOc1ccc(Cl)cc1Cl | inactive: -6.26% |
| Cc1c(NC(=O)c2cccs2)cccc1[N+](=O)[O-] | inactive: -8.17% |
| Cc1nc2cc3ccccc3cc2c(=O)[nH]1 | inactive: 3.18% |
| COc1cccc(CN2C(=O)N(C(C)C)C(N(O)C(=O)NC(C)C)C2(C)C)c1OC (centres undefined) | inactive: -1.39% |
| COc1ccc2c(c1)[nH]c1c(=O)n(Cc3ccccn3)cnc12 | inactive: 3.01% |
| Cn1c(=O)[nH]c(=O)c2c1nc(NCc1ccco1)n2CCCc1ccccc1 | inactive: 2.13% |
| CC1(C)CC(=O)c2cnc(NC(=O)C3CCCC3)nc2C1 | inactive: 0.802% |
| Cn1c(=O)c2c(ncn2CCO)n(C)c1=O | inactive: -6.89% |
| COc1ccc(-n2cc(CNCc3cccnc3)c(-c3cccc(F)c3)n2)cc1 | inactive: -18.3% |
| Cc1ccc2c(c1)C(O)(CC(=O)/C=C/C=C/c1ccccc1)C(=O)N2 (centres undefined) | inactive: -7.55% |
| COc1ccccc1OCC(=O)O | inactive: -2.4% |
| CCCCC/C=C\C[C@H](O)/C=C/c1cccc(C[C@H](O)CCCCO)n1 | inactive: -18.4% |
| CCSC(SCC)[C@H](O)[C@@H](O)[C@H](O)[C@H](O)CO | inactive: -1.6% |
| Cc1ccc(NCCC(=O)c2ccccc2)cc1Cl | inactive: 9.45% |
| O=C(CCSc1ccccc1)N1CCCC1 | inactive: 6.81% |
| COc1ccccc1C(CCN(Cc1ccccc1)C(C)=O)c1ccco1 (centres undefined) | inactive: 0.547% |
| COc1ccc2[nH]c(=O)c(CN(C(=O)c3ccco3)C(C)C)cc2c1 | inactive: 0.309% |
| CCCCNc1ccc(C(=O)OCCN(C)C)cc1 | inactive: -3.14% |
| Cc1ccccc1C(=O)Nc1ccccc1C(=O)NCC(C)C | inactive: -1.12% |

Given with each value named: entries from further up.
C[n+]1ccccc1/C=N/O
  growth inhibition: inactive: 18.1% and inactive: 2.57%
COc1ccc(CN2CCCCC2C(=O)Nc2ccc(OC)c(OCC(C)C)c2)cc1OC (centres undefined)
  growth inhibition: inactive: 0.843%
Cc1cccc(Nc2ccccc2C(=O)O)c1C
  growth inhibition: inactive: -9.21%

(cont.)

| SMILES | growth inhibition |
| --- | --- |
| O=C(/C=C/c1ccccc1)/C=C/c1ccccc1 | inactive: -3.32% |
| CC(OC(=O)c1cc(=O)[nH]c2ccccc12)C(=O)c1ccccc1 (centres undefined) | inactive: 9.25% |
| Cc1cnc(C(=O)NCCc2ccc(S(=O)(=O)NC(=O)NC3CCCCC3)cc2)cn1 | inactive: -1.17% |
| CCc1cc2c(=O)c(-c3nc(C)cs3)c(CCCC(=O)O)oc2cc1O | inactive: -4.53% |
| CC1(C)C2CCC1(C(=O)O)c1nc3ccccc3nc12 (centres undefined) | inactive: 1.35% |
| CC(=O)SC1CC2=CC(=O)CCC2(C)C2CCC3(C)C(CCC34CCC(=O)O4)C12 (centres undefined) | inactive: 4.6% |
| COC(=O)C1=C(C)NC(C)=C(C(=O)OCCN(C)Cc2ccccc2)C1c1cccc([N+](=O)[O-])c1 (centres undefined) | inactive: -5.9% |
| COc1ccc(-c2nnc(-c3cc4c(ccc5ccccc54)oc3=O)o2)cc1 | inactive: 11.1% |
| CC(C)CN1CC(C(=O)O)CC1=O (centres undefined) | inactive: -3.33% |
| CNc1c2c(nn1C)CCCC2 | inactive: -5.98% |
| COc1c2ccoc2nc2c(OC)cccc12 | inactive: 0.792% |
| CC(C)=CCC(C)(C)/C=N/NC(N)=O | inactive: -2.22% |
| NCCCC(N)(C(=O)O)C(F)F (centres undefined) | inactive: -9.5% |
| COc1cc(/C=C(\C#N)C(=O)N2CCc3ccccc32)ccc1O | inactive: -16% |
| Cc1ccccc1C(OCCN(C)C)c1ccccc1 (centres undefined) | inactive: 9.44% |
| O=C1[C@@H]2CSCN2C(=O)CN1Cc1ccc(F)cc1 | inactive: -1.67% |
| COc1cc(C(=O)Nc2ccc(N(C)C)cc2)c([N+](=O)[O-])cc1OC | inactive: 6.43% |
| C=C(C)C(=O)Nc1ccc(NC(C)C)cc1 | inactive: 1.87% |
| C#C[C@]1(O)CC[C@H]2[C@@H]3CCC4=C(CCC(=O)C4)[C@H]3CC[C@@]21C | inactive: -5.22% |
| CC(C)(C)NCC(O)c1cc(O)cc(O)c1 (centres undefined) | inactive: -6.86% |
| COc1ccc(Cc2nc(-c3ccc(Br)cc3)no2)cc1 | inactive: -25.2% |
| CCc1oc2ccccc2c1C(=O)c1cc(Br)c(O)c(Br)c1 | inactive: 31.9% |
| CC(C)NC(=O)c1ccc(C(C)C)cc1 | inactive: -3.19% |
| O=C1C2C3C=CC(C4CC34)C2C(=O)N1/N=C/c1ccc(-c2ccc([N+](=O)[O-])cc2)o1 (centres undefined) | inactive: 22.9% |
